Test results reported in patent US6451852B2, “Phenylacetonitrilealkylaminoalkyl-ortho-substituted aryl compounds as immunosuppressives” (G. D. Searle & Co., priority 1989, dated 2002).
Structures can show the parent of a compound that is named as a salt. At least one compound was matched to its structure with a doubt left.

Tested on: Human mononuclear cells
Experiment: Assay D: Calcium Flux Assay (human mononuclear cells)
Type: cell-based
Settings: at 2×, 5× and 10× the IC50 values of Assay A
From the text: Assay D: Calcium Flux Assay
One of the earliest requirements of lymphocyte activation involves the rapid mobilization of intracellular calcium and the sustained influx of extracellular calcium. These cellular responses to lymphocyte activators can be measured by calcium-binding fluorescent dyes such as Indo-1 [P. S. Rabinovitch, et al J. Immunol, 137, 952 (1986)]. The rapid and sustained changes in intracellular calcium can be used to discriminate classes of immunomodulatory compounds which alter early events in lymphocyte activation. Human mononuclear cells or the human Jurkat T-cell line (ATCC, Rockville Md.) were loaded with the calcium-sensitive dye, Indo-1 (5 μM), washed and incubated for 2-5 minutes in the presence or absence of test compounds. Calcium flux was initiated in lymphocytes by the binding of crosslinked antibody to the T cell receptor(αCD3 at 250 ng/ml followed by goat-anti-mouse IgG) or the lectin Phytohemagglutinin (PHA, 100 ug/ml). Jurkat cell activation was initiated by the addition of purified antibody to the T cell receptor (αCD3, 250 ng/ml). Subsequent changes in the concentration if intracellular calcium was monitored over time (6 min) by flow cytometry (Epics 753, Coulter Electronics, Hialeah Fla.) to determine modulation of the initial calcium-mediated activation of the cells [P. S. Rabinovitch, et al, E]. […]

Structure (SMILES): COC(=O)c1cc(OC)c(OC)cc1CCN(C)CCCC(C#N)(c1ccc(OC)c(OC)c1)C(C)C (centres unmarked) [Example 2, methyl 2-[2-[[4-cyano-4-(3,4-dimethoxyphenyl)-5-methylhexyl]methylamino]ethyl]-4,5-dimethoxybenzoate, 2-hydroxy-1,2,3-propanetricarboxylic acid salt]
- inhibition of calcium flux: inhibited calcium flux in a dose dependent manner

Structure (SMILES): COc1ccc(C(C#N)(CCCN(C)CCc2cc(OC)c(OC)cc2C(=O)NC(C)(C)C)C(C)C)cc1OC (centres unmarked) [Example 4, 2-[2-[[4-cyano-4-(3,4-dimethoxyphenyl)-5-methylhexyl]methylamino]ethyl]-N-(1,1-dimethylethyl)-4,5-dimethoxybenzamide, 2-hydroxy-1,2,3-propanetricarboxylic acid salt]
- inhibition of calcium flux: inhibited calcium flux in a dose dependent manner
